Drawing on PubChem BioAssay AID270 (DTP/NCI, 2004), this text covers survivor count and T/C for 14 compounds.

This assay deals with BDF1 mice, s.c. Lewis lung carcinoma, T/C %. Kind of assay: NCI In Vivo Anticancer Drug Screen. Data for tumor model Lewis Lung Carcinoma (subcutaneous) in B6D2F1 (BDF1) mice. In outline: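 Tumor-bearing mice were treated with test compound, and either survival or tumor size was recorded. Values are the treated-group measurement divided by that of the vehicle-treated control group.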

The mark [1] stands for this setting: T/C endpoint: median survival time, dose: 2.0 mg/kg/injection, schedule: Q01DX009 (ip), vehicle: saline, higher T/C = longer survival.

The list shows only some results of the screen, not a fair sample: it is rich in T/C values a quarter to a half above the control, in often repeated tests (any T/C) and in doses without a T/C. Other doses and runs of a compound stand elsewhere. T/C is the treated group as % of the vehicle group. Schedule codes are those of the source, read here as Q, the interval in days (D) or hours (H), X, the number of doses. Some doses have a count of surviving animals in place of a T/C: the source holds a T/C of zero for them, seemingly a mark for toxic or unscored doses. Some survivor counts are full or nearly so, which does not show that the dose was tolerated: the source hardly ever lists a survival T/C far under the control, and the zero likely stands for such cases as well. Survivors were counted at the toxicity check, usually on the fifth day, unless a day is given; later deaths do not show. Some schedules carry Z or #; the key to these is not given. Some structures stand for samples that the source files as different forms (salt, stereo form or complex); doses refer to the form tested. Marks such as (2×) give the number of equal values in this list. Some entries hold several experiments; the results are listed from low to high. Where survival is the endpoint, the PubChem record calls one and a half times the control and up active, and a quarter to a half above the control has no call in these data; cut-offs in other NCI protocols can differ.

`O=C1c2ccccc2C(=O)c2c(NCCNCCO)ccc(NCCNCCO)c21`: the survivor count is 10 of 10 (T/C endpoint: median survival time, dose: 0.5 mg/kg/injection, schedule: Q01DX009 (ip), vehicle: saline with Tween-80, higher T/C = longer survival); 9 of 10 (T/C endpoint: median survival time, dose: 1.0 mg/kg/injection, schedule: Q01DX009 (ip), vehicle: saline with Tween-80, higher T/C = longer survival); 10 of 10 (T/C endpoint: median survival time, dose: 2.0 mg/kg/injection, schedule: Q01DX009 (ip), vehicle: saline with Tween-80, higher T/C = longer survival); 10 of 10 under setting [1]; 10 of 10 (T/C endpoint: median survival time, dose: 4.0 mg/kg/injection, schedule: Q01DX009 (ip), vehicle: Klucel (hydroxypropylcellulose) (HPC), higher T/C = longer survival); 9 of 10 (T/C endpoint: median survival time, dose: 16.0 mg/kg/injection, schedule: Q01DX009 (ip), vehicle: water, higher T/C = longer survival). For the same compound, the survivor count was 10 of 10 (2×) (T/C endpoint: median survival time, dose: 32.0 mg/kg/injection, schedule: Q01DX009 (ip), vehicle: Klucel (hydroxypropylcellulose) (HPC), higher T/C = longer survival); 10 of 10 (T/C endpoint: median survival time, dose: 32.0 mg/kg/injection, schedule: Q01DX009 (ip), vehicle: acid diluted with saline, higher T/C = longer survival); 10 of 10 (T/C endpoint: median survival time, dose: 32.0 mg/kg/injection, schedule: Q01DX009 (ip), vehicle: other, higher T/C = longer survival); 10 of 10 (T/C endpoint: median survival time, dose: 32.0 mg/kg/injection, schedule: Q01DX009 (ip), vehicle: saline, higher T/C = longer survival); 10 of 10 (T/C endpoint: median survival time, dose: 32.0 mg/kg/injection, schedule: Q01DX009 (ip), vehicle: water, higher T/C = longer survival); 8 of 10 (T/C endpoint: median survival time, dose: 64.0 mg/kg/injection, schedule: Q01DX009 (ip), vehicle: Klucel (hydroxypropylcellulose) (HPC), higher T/C = longer survival). The survivor count by setting is: (T/C endpoint: median survival time, dose: 64.0 mg/kg/injection, schedule: Q01DX009 (ip), vehicle: acid diluted with saline, higher T/C = longer survival) 6 of 10; (T/C endpoint: median survival time, dose: 64.0 mg/kg/injection, schedule: Q01DX009 (ip), vehicle: other, higher T/C = longer survival) 9 of 10; (T/C endpoint: median survival time, dose: 64.0 mg/kg/injection, schedule: Q01DX009 (ip), vehicle: water, higher T/C = longer survival) 9 of 10 and 10 of 10; (T/C endpoint: median survival time, dose: 80.0 mg/kg/injection, schedule: Q## X004 (ip), vehicle: saline, higher T/C = longer survival) 8 of 10. The T/C reads like this: (T/C endpoint: median survival time, dose: 0.5 mg/kg/injection, schedule: Q01DX009 (ip), vehicle: saline, higher T/C = longer survival) 135 % of control; under setting [1], 127 % of control; (T/C endpoint: median survival time, dose: 8.0 mg/kg/injection, schedule: Q01DX009 (ip), vehicle: water, higher T/C = longer survival) 126 % of control; (T/C endpoint: median survival time, dose: 16.0 mg/kg/injection, schedule: Q01DX009 (ip), vehicle: Klucel (hydroxypropylcellulose) (HPC), higher T/C = longer survival) 131 % of control; (T/C endpoint: median survival time, dose: 16.0 mg/kg/injection, schedule: Q01DX009 (ip), vehicle: other, higher T/C = longer survival) 128 % of control.

`FC(F)(F)c1cc(CN(CCCl)CCCl)cc(C(F)(F)F)c1`: the survivor count is, setting by setting: (T/C endpoint: median survival time, dose: 25.0 mg/kg/injection, schedule: Q01DX009 (ip), vehicle: Klucel (hydroxypropylcellulose) (HPC), higher T/C = longer survival) 10 of 10; (T/C endpoint: median survival time, dose: 100.0 mg/kg/injection, schedule: Q01DX009 (ip), vehicle: Klucel (hydroxypropylcellulose) (HPC), higher T/C = longer survival) 10 of 10; (T/C endpoint: median survival time, dose: 200.0 mg/kg/injection, schedule: Q01DX009 (ip), vehicle: Klucel (hydroxypropylcellulose) (HPC), higher T/C = longer survival) 8 of 10.

Regarding `CCCNC(=NC)c1ccc(NC(=O)c2ccc(C(=O)Nc3ccc(C(=NC)NCCC)cc3)cc2)cc1`, the survivor count (T/C endpoint: mean tumor weight, dose: 20.0 mg/kg/injection, schedule: Q01DX011 (ip), vehicle: other, higher T/C = larger tumour) is given as 0 of 6.

Turning to `CC(C)CCCCCCCCCCCCC(=O)NCC(=O)NC1C(O)C(O)C(Nc2ncnc3nc[nH]c23)OC1C(O)CO` (stereo not drawn), the survivor count (T/C endpoint: mean tumor weight, dose: 2.0 mg/kg/injection, schedule: Q01DX011 (ip), vehicle: saline, higher T/C = larger tumour) is 0 of 6.

For the compound `CCC1/C=C/C=C/CC(C)C(O)C(C)(O)C(=O)C(C)C(O)C(C)C(=O)C(C)C(O)C(C)/C=C/C(=O)OC2C(C)C(CC1)OC1(OC(CC(C)O)C(C)CC1=O)C2C` (stereo not drawn) (tested in a mixture with another compound), the T/C (T/C endpoint: mean tumor weight, dose: 1.0 mg/kg/injection, schedule: Q01DX011 (ip), vehicle: saline, evaluated on day 12, higher T/C = larger tumour) is 142 % of control.

For the compound `COC12C(COC(=O)NCCO)C3=C(C(=O)C(C)=C(N)C3=O)N1CC1NC12` (stereo not drawn), the survivor count was 10 of 10 (T/C endpoint: median survival time, dose: 12.5 mg/kg/injection, schedule: Q01DX009 (ip), vehicle: Klucel (hydroxypropylcellulose) (HPC), higher T/C = longer survival) and 10 of 10 (T/C endpoint: median survival time, dose: 50.0 mg/kg/injection, schedule: Q01DX009 (ip), vehicle: Klucel (hydroxypropylcellulose) (HPC), higher T/C = longer survival).

As to `NC(=NCc1ccccc1)c1ccc(N=C(N)c2ccc(C(N)=Nc3ccc(C(N)=NCc4ccccc4)cc3)cc2)cc1`, the survivor count (T/C endpoint: median survival time, dose: 20.0 mg/kg/injection, schedule: Q01DX009 (ip), vehicle: saline, higher T/C = longer survival) is recorded as 10 of 10.

Consider `C/C=C(\C)C(=O)N/N=C\c1cc(Cl)cc(Cl)c1O`, for which the survivor count by setting is: (T/C endpoint: median survival time, dose: 100.0 mg/kg/injection, schedule: Q01DX009 (ip), vehicle: olive oil, sesame oil, peanut oil, higher T/C = longer survival) 10 of 10; (T/C endpoint: median survival time, dose: 400.0 mg/kg/injection, schedule: Q01DX009 (ip), vehicle: olive oil, sesame oil, peanut oil, higher T/C = longer survival) 10 of 10.

For the compound `CC(=O)[C@H]1CC[C@H]2[C@@H]3CC[C@@H]4CC(=O)CC[C@]4(C)[C@H]3[C@@H]3O[C@@H]3[C@]12C`, the survivor count is, setting by setting: (T/C endpoint: mean tumor weight, dose: 500.0 mg/kg/injection, schedule: Q01DX011 (ip), vehicle: other, higher T/C = larger tumour) 0 of 6; (T/C endpoint: mean tumor weight, dose: 1000.0 mg/kg/injection, schedule: Q01DX011 (ip), vehicle: other, higher T/C = larger tumour) 0 of 6.

On to `Nc1nc2[nH]c(=O)cnc2c(=O)[nH]1`, for which the survivor count (T/C endpoint: median survival time, dose: 25.0 mg/kg/injection, schedule: Q01DX009 (ip), vehicle: saline with Tween-80, higher T/C = longer survival) is reported as 10 of 10 and the survivor count (T/C endpoint: median survival time, dose: 50.0 mg/kg/injection, schedule: Q01DX009 (ip), vehicle: saline, higher T/C = longer survival) is recorded as 10 of 10.

As for `CS(=O)(=O)OCC(O)C(O)C(O)C(O)COS(C)(=O)=O` (stereo not drawn), the T/C (T/C endpoint: mean tumor weight, dose: 25.0 mg/kg/injection, schedule: Q01DX011 (ip), vehicle: saline, evaluated on day 12, higher T/C = larger tumour) was 125 % of control.

`CC1CCC[N-]C1.CC1CCC[N-]C1.CC1CCC[N-]C1.CC1CCC[N-]C1.[Cl][Rh][Cl]` (stereo not drawn): the survivor count (T/C endpoint: median survival time, dose: 12.0 mg/kg/injection, schedule: Q01DX009 (ip), vehicle: Klucel (hydroxypropylcellulose) (HPC), higher T/C = longer survival) is 7 of 10.

For the compound `O=C(NO)c1ccccc1O`, the survivor count (T/C endpoint: median survival time, dose: 50.0 mg/kg/injection, schedule: Q01DX009 (ip), vehicle: saline with Tween-80, higher T/C = longer survival) is given as 10 of 10; the survivor count (T/C endpoint: median survival time, dose: 100.0 mg/kg/injection, schedule: Q01DX009 (ip), vehicle: saline with Tween-80, higher T/C = longer survival) is 10 of 10; the survivor count (T/C endpoint: median survival time, dose: 200.0 mg/kg/injection, schedule: Q01DX009 (ip), vehicle: saline with Tween-80, higher T/C = longer survival) was 8 of 10.

As for `COc1ccc(CN2CCCN(Cc3ccc(OC)cc3)C2c2ccccc2)cc1`, the T/C reads like this: (T/C endpoint: mean tumor weight, dose: 74.0 mg/kg/injection, schedule: Q01DX011 (ip), vehicle: other, evaluated on day 12, higher T/C = larger tumour) 138 % of control; (T/C endpoint: mean tumor weight, dose: 166.0 mg/kg/injection, schedule: Q01DX011 (ip), vehicle: other, evaluated on day 12, higher T/C = larger tumour) 130 % of control.
